Data taken from article doi:10.1101/2022.12.13.520306.
These are yes or no findings as the source states them, for the method shown. Binding seen in cells or lysates may run through a third protein. Here binding means that the protein was enriched with, or labelled near, the bait; the list need not be complete.

By UniProt entry, the sequences of proteins in these tests, tags left out.
UniProt Q5H9F3: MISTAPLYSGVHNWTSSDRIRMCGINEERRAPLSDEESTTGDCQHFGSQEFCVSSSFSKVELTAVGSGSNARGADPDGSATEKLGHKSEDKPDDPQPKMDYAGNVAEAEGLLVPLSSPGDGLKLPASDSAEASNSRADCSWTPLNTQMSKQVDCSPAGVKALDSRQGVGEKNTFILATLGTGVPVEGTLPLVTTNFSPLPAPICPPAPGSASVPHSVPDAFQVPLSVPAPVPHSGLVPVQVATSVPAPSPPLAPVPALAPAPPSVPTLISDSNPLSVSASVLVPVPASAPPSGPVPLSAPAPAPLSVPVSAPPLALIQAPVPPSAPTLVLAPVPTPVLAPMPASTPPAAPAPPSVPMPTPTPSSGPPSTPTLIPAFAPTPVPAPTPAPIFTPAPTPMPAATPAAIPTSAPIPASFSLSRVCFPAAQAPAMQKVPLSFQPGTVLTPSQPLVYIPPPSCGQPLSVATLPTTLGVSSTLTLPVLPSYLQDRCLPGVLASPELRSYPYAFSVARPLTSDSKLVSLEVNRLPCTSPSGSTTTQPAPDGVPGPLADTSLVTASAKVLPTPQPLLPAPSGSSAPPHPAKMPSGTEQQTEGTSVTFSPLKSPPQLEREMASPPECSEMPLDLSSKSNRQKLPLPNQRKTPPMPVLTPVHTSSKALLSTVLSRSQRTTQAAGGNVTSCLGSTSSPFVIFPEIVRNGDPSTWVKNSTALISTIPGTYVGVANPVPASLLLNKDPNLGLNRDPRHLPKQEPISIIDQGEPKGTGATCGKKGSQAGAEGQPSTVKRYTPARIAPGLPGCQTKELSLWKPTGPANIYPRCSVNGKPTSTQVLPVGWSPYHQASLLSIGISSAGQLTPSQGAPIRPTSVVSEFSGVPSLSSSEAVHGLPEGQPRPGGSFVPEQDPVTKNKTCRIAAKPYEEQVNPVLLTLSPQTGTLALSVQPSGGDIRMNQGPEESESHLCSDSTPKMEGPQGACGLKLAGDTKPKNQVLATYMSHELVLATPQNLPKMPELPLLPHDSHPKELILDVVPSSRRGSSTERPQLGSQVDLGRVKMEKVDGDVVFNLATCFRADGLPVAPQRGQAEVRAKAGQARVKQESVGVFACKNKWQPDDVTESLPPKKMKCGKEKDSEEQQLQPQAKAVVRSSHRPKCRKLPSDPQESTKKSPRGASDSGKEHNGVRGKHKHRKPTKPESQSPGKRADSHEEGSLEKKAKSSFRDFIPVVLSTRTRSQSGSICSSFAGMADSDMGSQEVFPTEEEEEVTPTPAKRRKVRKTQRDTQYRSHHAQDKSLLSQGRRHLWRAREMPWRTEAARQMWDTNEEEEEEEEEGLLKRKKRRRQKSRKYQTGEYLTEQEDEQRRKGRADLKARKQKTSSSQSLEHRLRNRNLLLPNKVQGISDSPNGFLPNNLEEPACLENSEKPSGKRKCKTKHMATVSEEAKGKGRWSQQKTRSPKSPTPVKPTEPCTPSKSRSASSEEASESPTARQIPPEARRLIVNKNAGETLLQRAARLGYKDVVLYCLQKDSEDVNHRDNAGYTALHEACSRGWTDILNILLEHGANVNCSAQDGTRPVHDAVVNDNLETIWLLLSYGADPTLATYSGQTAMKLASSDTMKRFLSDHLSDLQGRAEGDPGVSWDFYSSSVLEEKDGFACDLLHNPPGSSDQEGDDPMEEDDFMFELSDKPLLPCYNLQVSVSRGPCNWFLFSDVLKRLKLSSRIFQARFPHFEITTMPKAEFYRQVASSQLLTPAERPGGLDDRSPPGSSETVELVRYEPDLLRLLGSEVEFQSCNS
UniProt Q9UPN9: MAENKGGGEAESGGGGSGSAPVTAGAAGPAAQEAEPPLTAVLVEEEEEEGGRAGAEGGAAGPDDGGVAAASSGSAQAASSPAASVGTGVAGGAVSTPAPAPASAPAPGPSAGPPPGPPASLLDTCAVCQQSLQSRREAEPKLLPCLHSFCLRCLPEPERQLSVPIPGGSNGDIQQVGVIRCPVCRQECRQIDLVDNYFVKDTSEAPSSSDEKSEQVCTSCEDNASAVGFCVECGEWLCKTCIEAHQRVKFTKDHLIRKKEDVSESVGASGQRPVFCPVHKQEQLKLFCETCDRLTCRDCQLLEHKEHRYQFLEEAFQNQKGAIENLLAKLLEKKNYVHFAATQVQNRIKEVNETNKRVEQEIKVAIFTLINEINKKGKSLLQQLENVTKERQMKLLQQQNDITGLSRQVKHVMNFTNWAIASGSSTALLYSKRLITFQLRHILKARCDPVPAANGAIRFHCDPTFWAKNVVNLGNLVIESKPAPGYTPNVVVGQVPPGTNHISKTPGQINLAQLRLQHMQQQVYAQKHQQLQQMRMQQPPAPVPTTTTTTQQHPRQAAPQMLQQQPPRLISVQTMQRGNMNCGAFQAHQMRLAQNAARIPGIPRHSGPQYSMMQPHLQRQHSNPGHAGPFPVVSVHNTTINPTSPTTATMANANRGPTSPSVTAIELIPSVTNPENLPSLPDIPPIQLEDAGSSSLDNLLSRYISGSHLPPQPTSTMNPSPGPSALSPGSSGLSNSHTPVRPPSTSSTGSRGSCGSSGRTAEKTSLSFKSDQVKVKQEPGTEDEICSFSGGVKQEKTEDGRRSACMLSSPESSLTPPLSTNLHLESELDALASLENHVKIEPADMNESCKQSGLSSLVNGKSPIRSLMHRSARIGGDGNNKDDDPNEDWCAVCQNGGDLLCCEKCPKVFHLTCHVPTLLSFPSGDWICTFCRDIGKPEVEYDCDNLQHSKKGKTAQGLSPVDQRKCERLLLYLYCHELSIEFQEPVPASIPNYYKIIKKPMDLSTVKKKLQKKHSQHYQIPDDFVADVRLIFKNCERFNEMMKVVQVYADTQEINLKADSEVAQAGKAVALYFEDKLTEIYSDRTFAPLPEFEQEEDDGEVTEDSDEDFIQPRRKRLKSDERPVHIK

T1: TurboID-FOXI1 (human) (UniProt Q12951)
T1 sequence: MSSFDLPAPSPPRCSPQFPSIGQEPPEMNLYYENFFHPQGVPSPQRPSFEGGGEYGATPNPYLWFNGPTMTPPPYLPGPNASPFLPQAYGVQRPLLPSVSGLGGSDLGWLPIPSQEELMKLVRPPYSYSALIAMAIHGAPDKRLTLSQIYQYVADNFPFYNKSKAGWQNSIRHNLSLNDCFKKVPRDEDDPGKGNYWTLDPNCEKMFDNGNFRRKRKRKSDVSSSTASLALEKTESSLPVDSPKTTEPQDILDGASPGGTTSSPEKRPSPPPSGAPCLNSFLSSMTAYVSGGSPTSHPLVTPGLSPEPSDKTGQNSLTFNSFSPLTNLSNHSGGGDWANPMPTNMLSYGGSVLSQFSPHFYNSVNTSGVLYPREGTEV

T2: TurboID-FOXD1 (human) (UniProt Q16676)
T2 sequence: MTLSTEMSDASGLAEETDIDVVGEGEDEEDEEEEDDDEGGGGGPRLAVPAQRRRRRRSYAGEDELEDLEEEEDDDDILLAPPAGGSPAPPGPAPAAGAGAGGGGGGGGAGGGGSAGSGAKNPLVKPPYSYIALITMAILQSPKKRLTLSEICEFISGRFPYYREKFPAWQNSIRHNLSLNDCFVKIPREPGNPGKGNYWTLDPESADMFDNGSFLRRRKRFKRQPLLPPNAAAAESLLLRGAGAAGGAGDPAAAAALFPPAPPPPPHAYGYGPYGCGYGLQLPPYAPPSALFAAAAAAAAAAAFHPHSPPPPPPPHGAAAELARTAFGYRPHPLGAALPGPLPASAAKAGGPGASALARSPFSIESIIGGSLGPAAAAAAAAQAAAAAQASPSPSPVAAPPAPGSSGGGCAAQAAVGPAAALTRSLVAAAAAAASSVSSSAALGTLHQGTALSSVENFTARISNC

B1: PIAS4 (protein, UniProt Q8N2W9 1-510)
chain: MAAELVEAKNMVMSFRVSDLQMLLGFVGRSKSGLKHELVTRALQLVQFDCSPELFKKIKELYETRYAKKNSEPAPQPHRPLDPLTMHSTYDRAGAVPRTPLAGPNIDYPVLYGKYLNGLGRLPAKTLKPEVRLVKLPFFNMLDELLKPTELVPQNNEKLQESPCIFALTPRQVELIRNSRELQPGVKAVQVVLRICYSDTSCPQEDQYPPNIAVKVNHSYCSVPGYYPSNKPGVEPKRPCRPINLTHLMYLSSATNRITVTWGNYGKSYSVALYLVRQLTSSELLQRLKTIGVKHPELCKALVKEKLRLDPDSEIATTGVRVSLICPLVKMRLSVPCRAETCAHLQCFDAVFYLQMNEKKPTWMCPVCDKPAPYDQLIIDGLLSKILSECEDADEIEYLVDGSWCPIRAEKERSCSPQGAILVLGPSDANGLLPAPSVNGSGALGSTGGGGPVGSMENGKPGADVVDLTLDSSSSSEDEEEEEEEEEDEDEEGPRPKRRCPFQKGLVPAC
B2: JUNB (protein, UniProt P17275 1-347)
chain: MCTKMEQPFYHDDSYTATGYGRAPGGLSLHDYKLLKPSLAVNLADPYRSLKAPGARGPGPEGGGGGSYFSGQGSDTGASLKLASSELERLIVPNSNGVITTTPTPPGQYFYPRGGGSGGGAGGAGGGVTEEQEGFADGFVKALDDLHKMNHVTPPNVSLGATGGPPAGPGGVYAGPEPPPVYTNLSSYSPASASSGGAGAAVGTGSSYPTTTISYLPHAPPFAGGHPAQLGLGRGASTFKEEPQTVPEARSRDATPPVSPINMEDQERIKVERKRLRNRLAATKCRKRKLERIARLEDKVKTLKAENAGLSSTAGLLREQVAQLKQKVMTHVSNGCQLLLGVKGHAF

What was measured:
TurboID-FOXI1 (human) = biological target: T1, TurboID-FOXI1 (human); assay: proximity labelling
TurboID-FOXD1 (human) = biological target: T2, TurboID-FOXD1 (human); assay: proximity labelling

| Molecule | binding (TurboID-FOXI1 (human)) | binding (TurboID-FOXD1 (human)) |
| --- | --- | --- |
| BCORL1 (from UniProt Q5H9F3 1-1785) | binds | – |
| TRIM33 (from UniProt Q9UPN9 1-1127) | – | binds |
| B1 | – | binds |
| B2 | – | binds |
